Data as given in PMC11050395.

The chains behind the UniProt entries cited, without tags or fusion partners. Where a name states a change or a piece, a line headed by the entry shows the natural chain unless it says otherwise.
UniProt P19367: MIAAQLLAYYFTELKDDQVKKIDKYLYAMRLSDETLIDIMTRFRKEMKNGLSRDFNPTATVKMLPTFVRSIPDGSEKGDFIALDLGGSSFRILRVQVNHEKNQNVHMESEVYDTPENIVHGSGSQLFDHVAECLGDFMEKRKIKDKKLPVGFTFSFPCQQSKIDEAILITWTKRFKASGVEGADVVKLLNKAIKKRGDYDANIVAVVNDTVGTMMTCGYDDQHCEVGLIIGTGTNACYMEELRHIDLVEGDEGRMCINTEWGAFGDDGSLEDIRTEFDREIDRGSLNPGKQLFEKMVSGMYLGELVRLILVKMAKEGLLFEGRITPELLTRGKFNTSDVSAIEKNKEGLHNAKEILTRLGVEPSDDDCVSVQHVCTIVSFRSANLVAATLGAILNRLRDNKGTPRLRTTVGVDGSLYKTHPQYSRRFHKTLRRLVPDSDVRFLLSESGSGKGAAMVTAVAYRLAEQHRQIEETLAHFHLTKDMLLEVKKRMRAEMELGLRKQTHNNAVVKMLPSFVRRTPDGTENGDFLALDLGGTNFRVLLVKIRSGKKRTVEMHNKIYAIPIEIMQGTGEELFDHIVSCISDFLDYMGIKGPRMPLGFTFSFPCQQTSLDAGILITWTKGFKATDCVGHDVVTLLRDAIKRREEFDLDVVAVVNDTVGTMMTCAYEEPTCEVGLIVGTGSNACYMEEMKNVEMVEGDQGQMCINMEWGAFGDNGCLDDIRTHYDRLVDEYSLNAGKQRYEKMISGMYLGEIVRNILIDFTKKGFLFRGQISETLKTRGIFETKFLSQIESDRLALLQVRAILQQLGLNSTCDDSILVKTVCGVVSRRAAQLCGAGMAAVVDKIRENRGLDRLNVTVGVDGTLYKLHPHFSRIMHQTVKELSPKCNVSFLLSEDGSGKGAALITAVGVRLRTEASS
UniProt P21796: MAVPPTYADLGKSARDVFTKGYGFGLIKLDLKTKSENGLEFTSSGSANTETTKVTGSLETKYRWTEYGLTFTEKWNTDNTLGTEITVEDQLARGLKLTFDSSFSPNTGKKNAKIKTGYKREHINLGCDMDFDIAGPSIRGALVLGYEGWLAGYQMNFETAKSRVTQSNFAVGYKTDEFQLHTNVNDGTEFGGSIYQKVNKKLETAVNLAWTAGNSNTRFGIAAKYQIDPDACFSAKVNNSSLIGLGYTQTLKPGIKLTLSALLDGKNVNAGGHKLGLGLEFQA

Target: wild-type Hexokinase 1 with a C-terminal Flag tag (HKI-wt) (human) (UniProt P19367)
Test: co-IP; HEK293T cells transfected with Flag-tagged HKI-wt or HKI-mut, lysed 48 h after transfection (Tris HCl 0.5 M pH 8, NaCl 0.1 M, EDTA 2 mM, Triton 0.1%); IP with anti-Flag antibody on Dynabeads Protein G; Western blot for VDAC

**Q.** How did the binding turn out when “Voltage-Dependent Anion Channel-1 (VDAC) (from UniProt P21796 1-283)” was run?
**A.** binds

No constants are given. Whether binding was seen depends on the method and setting. Binding seen in cells or lysates may run through a third protein. Binding can be weak; no strength is given.
